Data taken from article PMC10947329.

biological target: Cysteine‐rich secretory protein 2 (pig (endogenous in boar spermatozoa)); assay: affinity purification with mass spectrometry + native gel or EMSA; anti-CRISP2 cross-linked to protein A/G magnetic beads, incubated with ~0.5 mg boar sperm lysate (NC, CAP, II) overnight at 4°C, eluate by LC-MS/MS; and the CRISP2-immunoreactive ~150 kDa band excised from blue native PAGE by LC-MS/MS; proteins common to both lists

Row | binding | Binder
1 | binds | Sperm‐associated acrosin inhibitor (AI) (protein, UniProt P26461 27-97) ARSKKTRKEPDCDVYRSHLFFCTREMDPICGTNGKSYANPCIFCSEKLGRNEKFDFGHWGHCREYTSAARS
2 | binds | Acrosin (ACR) (protein, UniProt P08001 17-415) RDNATCDGPCGLRFRQKLESGMRVVGGMSAEPGAWPWMVSLQIFMYHNNRRYHTCGGILLNSHWVLTAAHCFKNKKKVTDWRLIFGANEVVWGSNKPVKPPLQERFVEEIIIHEKYVSGLEINDIALIKITPPVPCGPFIGPGCLPQFKAGPPRAPQTCWVTGWGYLKEKGPRTSPTLQEARVALIDLELCNSTRWYNGRIRSTNVCAGYPRGKIDTCQGDSGGPLMCRDRAENTFVVVGITSWGVGCARAKRPGVYTSTWPYLNWIASKIGSNALQMVQLGTPPRPSTPAPPVRPPSVQTPVRPPWYFQRPPGPSQQPGSRPRPPAPPPAPPPPPPPPPPPPPPPPPPPQQVSAKPPQALSFAKRLQQLIEALKGTAFSSGRSYYETETTDLQELPAS
3 | binds | Acrosin binding protein, 60 kDa form (ACRBP) (protein, UniProt Q29016 26-539) QDANSASTPGSPLSPTEYERFFALLTPTWKAETTCRLRATHGCRNPTLVQLDQYENHGLVPDGAVCSDLPYASWFESFCQFTQYRCSNHVYYAKRVRCSQPVSILSPNSLKEVDTSSEVPITTMTSPVSSHITATGRQVFQPWPERLNNNVEELLQSSLSLGGQEQGQEHKQEHKQEQGQEHKQDEGQEQEEQEEEQEEEGKQEEGQGTEESLEAMSGLQADSEPKFQSEFVSSNPFSFTPRVREVESTPMMMENIQELIRSAQEMDEMGDVYEEENIWRAQSPGSLLQLPHVDALLVLCYSIVENTCVITPTAKAWQYLEDETLGFGKSVCDSLGRRHLAACSLCDFCSLKLEQCHSETNLQRQQCDNSHKTPFISPLLASQSMSIGTQIGTLKSGRFYGLDLYGGLRMDFWCARLATKGCEDNRVASWLQTEFLSFQDGDFPTKICDTEYVQYPNYCAFKSQQCMMRNRDRKVSRMRCLQNETYTVLTQAKSEDLVLRWSQEFSTLTLGQAG

No constants are given. Whether binding was seen depends on the method and setting. In cells and extracts the contact can be indirect. Here binding means that the protein was enriched with, or labelled near, the bait; the list need not be complete.
